No constants are given. Whether binding was seen depends on the method and setting. Binding seen in cells or lysates may run through a third protein. These calls come from enrichment with a bait or labelling near it, and not all partners need be listed.
Biological target: TAB182 (human (endogenous in TE-10 and KYSE-150)) (UniProt Q9C0C2)
Experiment: affinity purification with mass spectrometry; co-immunoprecipitation of TAB182 from ESCC cells, products on Coomassie-stained SDS-PAGE gel, MS/MS

By UniProt entry, the sequences of proteins in these tests, tags left out.
UniProt Q9C0C2: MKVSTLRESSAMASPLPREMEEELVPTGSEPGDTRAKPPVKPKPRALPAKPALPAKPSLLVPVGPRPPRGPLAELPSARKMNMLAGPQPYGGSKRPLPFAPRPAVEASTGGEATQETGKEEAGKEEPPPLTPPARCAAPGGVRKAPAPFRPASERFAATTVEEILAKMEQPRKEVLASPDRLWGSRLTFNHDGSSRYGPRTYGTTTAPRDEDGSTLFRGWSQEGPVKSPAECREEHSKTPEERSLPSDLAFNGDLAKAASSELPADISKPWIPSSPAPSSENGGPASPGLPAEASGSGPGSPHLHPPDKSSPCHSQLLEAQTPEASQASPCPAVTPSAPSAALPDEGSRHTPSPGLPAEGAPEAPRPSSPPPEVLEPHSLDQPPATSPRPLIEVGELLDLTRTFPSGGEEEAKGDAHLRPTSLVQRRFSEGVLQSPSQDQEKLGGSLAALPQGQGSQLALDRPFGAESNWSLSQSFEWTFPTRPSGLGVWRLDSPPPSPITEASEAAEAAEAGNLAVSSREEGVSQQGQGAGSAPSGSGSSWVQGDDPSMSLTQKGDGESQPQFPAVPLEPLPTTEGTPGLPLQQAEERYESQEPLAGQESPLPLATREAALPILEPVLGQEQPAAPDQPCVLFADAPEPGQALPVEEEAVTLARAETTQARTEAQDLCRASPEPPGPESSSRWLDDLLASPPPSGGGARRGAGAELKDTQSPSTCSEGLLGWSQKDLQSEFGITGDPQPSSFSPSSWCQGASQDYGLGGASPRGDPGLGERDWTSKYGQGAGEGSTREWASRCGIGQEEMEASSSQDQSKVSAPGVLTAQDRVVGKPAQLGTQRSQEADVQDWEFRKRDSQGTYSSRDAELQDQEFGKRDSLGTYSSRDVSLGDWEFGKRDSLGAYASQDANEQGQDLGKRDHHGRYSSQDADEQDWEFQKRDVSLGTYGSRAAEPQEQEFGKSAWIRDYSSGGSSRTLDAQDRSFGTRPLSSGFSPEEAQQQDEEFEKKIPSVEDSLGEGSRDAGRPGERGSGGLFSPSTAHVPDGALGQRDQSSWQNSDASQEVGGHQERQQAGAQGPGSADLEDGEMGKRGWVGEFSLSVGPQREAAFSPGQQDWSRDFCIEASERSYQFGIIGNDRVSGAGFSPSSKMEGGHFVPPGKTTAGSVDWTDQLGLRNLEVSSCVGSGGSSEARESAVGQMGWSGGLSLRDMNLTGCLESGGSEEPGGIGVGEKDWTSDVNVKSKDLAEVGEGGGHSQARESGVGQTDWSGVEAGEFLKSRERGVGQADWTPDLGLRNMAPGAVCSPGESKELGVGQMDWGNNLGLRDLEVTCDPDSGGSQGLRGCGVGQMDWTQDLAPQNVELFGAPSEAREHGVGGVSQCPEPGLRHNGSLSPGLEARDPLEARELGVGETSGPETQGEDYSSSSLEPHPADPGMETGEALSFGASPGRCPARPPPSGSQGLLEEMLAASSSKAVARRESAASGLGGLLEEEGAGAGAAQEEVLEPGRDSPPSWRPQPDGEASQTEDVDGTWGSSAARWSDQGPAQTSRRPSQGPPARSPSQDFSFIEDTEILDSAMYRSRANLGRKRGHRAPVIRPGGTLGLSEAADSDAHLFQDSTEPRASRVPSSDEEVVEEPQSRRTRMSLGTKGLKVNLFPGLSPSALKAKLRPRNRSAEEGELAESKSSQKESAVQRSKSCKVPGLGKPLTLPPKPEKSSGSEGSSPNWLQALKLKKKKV
UniProt P35222: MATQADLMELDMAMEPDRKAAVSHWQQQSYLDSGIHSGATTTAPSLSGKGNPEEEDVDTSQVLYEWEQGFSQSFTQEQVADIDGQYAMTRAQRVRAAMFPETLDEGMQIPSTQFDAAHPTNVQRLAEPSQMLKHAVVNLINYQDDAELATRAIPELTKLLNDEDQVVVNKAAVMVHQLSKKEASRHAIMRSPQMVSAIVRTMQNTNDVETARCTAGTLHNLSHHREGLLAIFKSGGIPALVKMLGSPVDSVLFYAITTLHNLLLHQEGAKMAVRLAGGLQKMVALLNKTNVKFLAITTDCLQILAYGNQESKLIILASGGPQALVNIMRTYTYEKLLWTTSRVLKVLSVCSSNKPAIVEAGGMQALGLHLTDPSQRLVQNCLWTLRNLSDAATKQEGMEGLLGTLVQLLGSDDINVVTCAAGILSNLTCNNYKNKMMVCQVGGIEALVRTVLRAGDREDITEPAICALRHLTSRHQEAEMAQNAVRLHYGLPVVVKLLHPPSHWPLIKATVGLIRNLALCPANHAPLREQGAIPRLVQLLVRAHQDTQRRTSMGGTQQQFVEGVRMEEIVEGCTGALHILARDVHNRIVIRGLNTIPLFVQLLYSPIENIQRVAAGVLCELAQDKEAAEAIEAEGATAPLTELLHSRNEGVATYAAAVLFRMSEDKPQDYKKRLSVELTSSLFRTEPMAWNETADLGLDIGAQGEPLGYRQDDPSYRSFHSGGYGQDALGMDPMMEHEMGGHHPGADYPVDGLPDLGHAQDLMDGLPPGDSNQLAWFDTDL

- binding: binds
Substance: β-catenin (from UniProt P35222 1-781)

From PMC9606255
